# From US8754242B2, “Herbicides” (Syngenta Crop Protection LLC, priority 2007, dated 2014)
# Where “and” joins values, the source holds several entries; their conditions need not be identical. Equal values may be shown once. The name of at least one read-out is uncertain.
# Columns and labels:
# Experiment in all cases: Test Example 1 post-emergence herbicidal activity
# Type in all cases: in vivo
# Conditions in all cases: rate 125 g/ha, evaluated 15 days later
# [1] = system: Alopecurus myosuroides (ALOMY)
# Protocol: (§1) Monocotyledonous and dicotyledonous test plants were sown in standard soil in pots. After cultivation for one day (pre-emergence) or after 10 days cultivation (post-emergence) under controlled conditions in a glasshouse, the plants were sprayed with an aqueous spray solution derived from the formulation of the technical active ingredient in 0.6 ml acetone and 45 ml formulation solution containing 10.6% Emulsogen EL (Registry number 61791-12-6), 42.2% N-methylpyrrolidone, 42.2% dipropylene glycol monomethyl ether (Registry number 34590-94-8) and 0.2% X-77 (Registry number 11097-66-8). The test plants were then grown in a greenhouse under optimum conditions until, 15 days later for post-emergence and 20 days for pre-emergence, the test was evaluated (100=total damage to plant; 0=no damage to plant).
# (§2) Alopecurus myosuroides (ALOMY), Avena fatua (AVEFA), Lolium perenne (LOLPE), Setaria faberi (SETFA), Digitaria sanguinalis (DIGSA), Echinochloa crus-galli (ECHCG)
# Avena fatua (AVEFA) = system: Avena fatua (AVEFA)
# Protocol: as §1, §2
# [2] = system: Digitaria sanguinalis (DIGSA)
# Protocol: as §1, §2
# [3] = system: Echinochloa crus-galli (ECHCG)
# Protocol: as §1, §2
# Lolium perenne (LOLPE) = system: Lolium perenne (LOLPE)
# Protocol: as §1, §2
# Setaria faberi (SETFA) = system: Setaria faberi (SETFA)
# Protocol: as §1, §2
smiles,measurement,setting,value
CCc1cc(C)cc(CC)c1C1=C(OC(=O)OCC(C)C)[C@H]2[C@@H](C1=O)[C@@H]1CC[C@H]2O1 (racemic) [Example P24],Post-emergence activity ALOMY (100=total damage to plant; 0=no damage to plant),[1],80
same,Post-emergence activity AVEFA (100=total damage to plant; 0=no damage to plant),Avena fatua (AVEFA),100 and 60
same,Post-emergence activity DIGSA (100=total damage to plant; 0=no damage to plant),[2],70 and 100
same,Post-emergence activity ECHCG (100=total damage to plant; 0=no damage to plant),[3],90
same,Post-emergence activity LOLPE (100=total damage to plant; 0=no damage to plant),Lolium perenne (LOLPE),100 and 70
same,Post-emergence activity SETFA (100=total damage to plant; 0=no damage to plant),Setaria faberi (SETFA),90
